From PMC8072408
No constants are given. Whether binding was seen depends on the method and setting. For some of these results: In cells and extracts the contact can be indirect. Some binding calls cover weakened binding; strength is not graded here. For some of these results: Tags and fused reporters may be left off the sequences shown.

Tests used:
[1] = biological target: T1, 3XFLAG-VMP1 (UniProt Q96GC9); assay: pull-down; lysate of Expi293F cells overexpressing ATG2A passed over 3XFLAG-TMEM41B or 3XFLAG-VMP1 immobilized on anti-FLAG resin; only the target purified
T1 sequence: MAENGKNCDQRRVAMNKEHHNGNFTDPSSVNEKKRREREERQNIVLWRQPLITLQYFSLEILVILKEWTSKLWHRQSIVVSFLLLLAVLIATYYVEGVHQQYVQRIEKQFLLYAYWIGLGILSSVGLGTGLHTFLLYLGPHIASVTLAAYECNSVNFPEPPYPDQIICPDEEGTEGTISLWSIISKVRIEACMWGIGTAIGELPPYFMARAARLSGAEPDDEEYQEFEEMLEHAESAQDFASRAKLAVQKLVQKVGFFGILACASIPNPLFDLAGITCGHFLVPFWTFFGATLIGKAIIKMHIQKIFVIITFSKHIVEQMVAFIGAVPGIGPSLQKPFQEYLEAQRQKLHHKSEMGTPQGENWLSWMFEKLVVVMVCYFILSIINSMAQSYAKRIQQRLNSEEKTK

[2] = biological target: T2, 3XFLAG-TMEM41B (UniProt Q5BJD5); assay: as above
T2 sequence: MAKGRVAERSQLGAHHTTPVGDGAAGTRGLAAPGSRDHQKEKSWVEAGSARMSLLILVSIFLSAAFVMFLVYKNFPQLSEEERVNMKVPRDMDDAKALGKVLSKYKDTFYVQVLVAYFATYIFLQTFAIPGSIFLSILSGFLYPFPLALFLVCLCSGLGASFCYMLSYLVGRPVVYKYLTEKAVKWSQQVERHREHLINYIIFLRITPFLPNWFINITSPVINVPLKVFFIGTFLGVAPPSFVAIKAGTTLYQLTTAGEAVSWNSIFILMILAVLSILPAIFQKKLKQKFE

[3] = biological target: T1, 3XFLAG-VMP1; assay: liposome flotation (density gradient centrifugation); mini-ATG2A incubated with protein-free liposomes or liposomes reconstituted with ATG9A, TMEM41B, VMP1 or TMEM41B/VMP1; liposomes and associated mini-ATG2A separated from unbound protein by density gradient centrifugation; both purified
[4] = biological target: T3, TMEM41B/VMP1 (1:1 mixture reconstituted together into liposomes) (UniProt Q5BJD5); assay: as above
T3 sequence 1: T2 sequence
T3 sequence 2: T1 sequence

[5] = biological target: T2, 3XFLAG-TMEM41B; assay: as above
[6] = biological target: T1, 3XFLAG-VMP1; assay: pull-down; mini-ATG2A in interaction experiments similar to the ones described for the full-length protein (3XFLAG-tagged ATG9A, TMEM41B or VMP1 as bait)
[7] = biological target: T2, 3XFLAG-TMEM41B; assay: as above

Measured: binding

ATG2A (untagged, full-length) (from UniProt Q2TAZ0 1-1938)
binds: [1] | [2]

B1: mini-ATG2A (residues 1 to 345) (domain or fragment, UniProt Q2TAZ0 1-345)
chain: MSRWLWPWSNCVKERVCRYLLHHYLGHFFQEHLSLDQLSLDLYKGSVALRDIHLEIWSVNEVLESMESPLELVEGFVGSIEVAVPWAALLTDHCTVRVSGLQLTLQPRRGPAPGAADSQSWASCMTTSLQLAQECLRDGLPEPSEPPQPLEGLEMFAQTIETVLRRIKVTFLDTVVRVEHSPGDGERGVAVEVRVQRLEYCDEAVRDPSQAPPVDVHQPPAFLHKLLQLAGVRLHYEELPAQEEPPEPPLQIGSCSGYMELMVKLKQNEAFPGPKLEVAGQLGSLHLLLTPRQLQQLQELLSAVSLTDHEGLADKLNKSRPLGAEDLWLIEQDLNQQLQAGAVAE
not listed: [1] | [2]
binds: all other assays above
